14 molecules from the supplement of paper PMC12823440, “Inhibitors supercharge kinase turnover through native proteolytic circuits” (Nature, 2025) can be followed below.

Amino acid sequences for entries named in this document (tags omitted). A change or cut given only in a name is not applied to a line headed by its entry.
UniProt O75460: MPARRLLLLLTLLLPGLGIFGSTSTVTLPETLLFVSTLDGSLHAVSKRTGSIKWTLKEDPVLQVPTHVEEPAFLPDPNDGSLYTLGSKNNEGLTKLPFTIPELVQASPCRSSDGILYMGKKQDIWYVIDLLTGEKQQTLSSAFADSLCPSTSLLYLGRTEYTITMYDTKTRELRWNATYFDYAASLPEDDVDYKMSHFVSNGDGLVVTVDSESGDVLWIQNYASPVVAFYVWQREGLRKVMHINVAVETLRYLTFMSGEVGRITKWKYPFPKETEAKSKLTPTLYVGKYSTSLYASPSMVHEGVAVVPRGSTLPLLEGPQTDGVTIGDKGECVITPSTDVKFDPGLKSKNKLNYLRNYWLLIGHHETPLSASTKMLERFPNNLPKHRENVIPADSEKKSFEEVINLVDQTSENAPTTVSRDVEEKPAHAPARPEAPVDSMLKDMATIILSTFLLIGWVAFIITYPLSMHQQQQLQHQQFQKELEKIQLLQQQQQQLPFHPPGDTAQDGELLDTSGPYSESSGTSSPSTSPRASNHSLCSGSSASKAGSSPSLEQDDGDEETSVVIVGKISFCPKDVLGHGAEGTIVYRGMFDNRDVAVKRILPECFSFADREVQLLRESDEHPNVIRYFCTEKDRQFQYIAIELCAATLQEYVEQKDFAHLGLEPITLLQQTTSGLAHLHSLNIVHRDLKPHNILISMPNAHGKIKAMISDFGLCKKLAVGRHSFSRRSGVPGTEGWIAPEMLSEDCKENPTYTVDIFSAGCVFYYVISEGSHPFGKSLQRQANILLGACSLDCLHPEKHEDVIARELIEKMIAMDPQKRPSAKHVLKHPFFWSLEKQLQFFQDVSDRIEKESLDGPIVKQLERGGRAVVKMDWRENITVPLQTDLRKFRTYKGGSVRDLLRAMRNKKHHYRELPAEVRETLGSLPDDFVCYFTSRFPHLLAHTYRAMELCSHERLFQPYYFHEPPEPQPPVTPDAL
UniProt P11362, whole entry, looked up: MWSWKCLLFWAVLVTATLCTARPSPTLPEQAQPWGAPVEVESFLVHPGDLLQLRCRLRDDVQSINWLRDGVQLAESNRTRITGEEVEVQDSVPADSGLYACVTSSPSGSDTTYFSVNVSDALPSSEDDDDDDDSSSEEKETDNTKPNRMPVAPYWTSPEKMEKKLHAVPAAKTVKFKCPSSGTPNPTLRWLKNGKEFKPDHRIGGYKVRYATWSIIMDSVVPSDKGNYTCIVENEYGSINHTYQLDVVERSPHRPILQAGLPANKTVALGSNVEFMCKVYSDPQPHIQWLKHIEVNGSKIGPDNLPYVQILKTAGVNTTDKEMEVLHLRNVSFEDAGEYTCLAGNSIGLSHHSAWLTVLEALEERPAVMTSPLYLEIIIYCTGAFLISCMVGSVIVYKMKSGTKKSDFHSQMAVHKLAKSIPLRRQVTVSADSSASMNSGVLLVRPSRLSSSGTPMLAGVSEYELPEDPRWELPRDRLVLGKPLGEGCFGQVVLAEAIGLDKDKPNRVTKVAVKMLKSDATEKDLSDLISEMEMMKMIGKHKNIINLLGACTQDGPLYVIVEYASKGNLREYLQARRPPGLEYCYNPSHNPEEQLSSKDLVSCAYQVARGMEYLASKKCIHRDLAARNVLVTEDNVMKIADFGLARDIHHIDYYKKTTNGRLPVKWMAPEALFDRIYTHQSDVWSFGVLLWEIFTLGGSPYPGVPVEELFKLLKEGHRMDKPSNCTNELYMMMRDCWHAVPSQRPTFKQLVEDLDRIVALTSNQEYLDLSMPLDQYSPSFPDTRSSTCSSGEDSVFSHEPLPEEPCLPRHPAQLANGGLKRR
UniProt P22607, whole entry, looked up: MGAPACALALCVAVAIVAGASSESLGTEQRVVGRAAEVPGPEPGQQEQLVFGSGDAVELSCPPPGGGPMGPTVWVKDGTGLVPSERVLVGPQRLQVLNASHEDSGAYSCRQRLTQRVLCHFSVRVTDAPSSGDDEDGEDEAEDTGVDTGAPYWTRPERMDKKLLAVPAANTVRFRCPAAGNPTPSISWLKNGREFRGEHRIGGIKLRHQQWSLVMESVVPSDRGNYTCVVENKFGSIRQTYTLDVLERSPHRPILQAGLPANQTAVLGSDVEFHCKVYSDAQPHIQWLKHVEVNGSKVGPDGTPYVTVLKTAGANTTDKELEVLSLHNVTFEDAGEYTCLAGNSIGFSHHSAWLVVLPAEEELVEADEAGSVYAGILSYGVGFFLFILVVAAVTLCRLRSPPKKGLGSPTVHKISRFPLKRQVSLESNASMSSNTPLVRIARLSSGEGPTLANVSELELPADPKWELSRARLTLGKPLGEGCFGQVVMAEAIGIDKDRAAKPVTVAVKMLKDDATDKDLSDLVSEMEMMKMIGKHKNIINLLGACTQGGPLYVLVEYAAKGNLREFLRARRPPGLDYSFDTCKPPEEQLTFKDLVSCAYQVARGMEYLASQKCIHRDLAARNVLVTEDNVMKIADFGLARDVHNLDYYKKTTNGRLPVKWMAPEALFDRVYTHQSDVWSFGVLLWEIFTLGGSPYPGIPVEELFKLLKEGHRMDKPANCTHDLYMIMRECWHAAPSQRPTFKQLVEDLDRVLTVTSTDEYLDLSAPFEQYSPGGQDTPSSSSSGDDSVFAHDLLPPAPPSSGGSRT
UniProt P36888, whole entry: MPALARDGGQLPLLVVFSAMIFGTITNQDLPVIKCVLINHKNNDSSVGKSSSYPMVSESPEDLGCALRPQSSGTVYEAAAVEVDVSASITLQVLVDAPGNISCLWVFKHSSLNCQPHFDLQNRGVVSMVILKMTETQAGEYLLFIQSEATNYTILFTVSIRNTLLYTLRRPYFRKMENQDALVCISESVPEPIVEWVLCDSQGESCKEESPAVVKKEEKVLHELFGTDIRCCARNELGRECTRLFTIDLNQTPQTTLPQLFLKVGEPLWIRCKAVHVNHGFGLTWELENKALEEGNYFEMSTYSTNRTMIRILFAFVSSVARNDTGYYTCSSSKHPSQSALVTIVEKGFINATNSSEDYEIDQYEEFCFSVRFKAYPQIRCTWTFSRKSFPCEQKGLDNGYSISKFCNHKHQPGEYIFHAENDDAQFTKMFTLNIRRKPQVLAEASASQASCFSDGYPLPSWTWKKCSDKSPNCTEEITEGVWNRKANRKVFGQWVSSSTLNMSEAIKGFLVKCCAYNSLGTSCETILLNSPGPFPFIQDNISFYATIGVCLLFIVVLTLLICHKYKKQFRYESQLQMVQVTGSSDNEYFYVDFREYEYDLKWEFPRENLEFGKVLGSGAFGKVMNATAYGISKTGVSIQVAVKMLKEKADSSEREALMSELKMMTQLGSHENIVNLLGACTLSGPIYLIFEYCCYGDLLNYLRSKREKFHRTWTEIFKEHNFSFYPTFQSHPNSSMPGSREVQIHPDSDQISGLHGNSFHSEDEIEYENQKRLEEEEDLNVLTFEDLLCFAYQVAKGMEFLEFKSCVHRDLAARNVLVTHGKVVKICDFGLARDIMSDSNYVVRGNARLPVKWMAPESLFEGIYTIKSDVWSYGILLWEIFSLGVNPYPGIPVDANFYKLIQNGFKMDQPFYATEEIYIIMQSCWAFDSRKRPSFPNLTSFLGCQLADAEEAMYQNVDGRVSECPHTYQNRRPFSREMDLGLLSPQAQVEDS
UniProt P06241, whole entry, looked up: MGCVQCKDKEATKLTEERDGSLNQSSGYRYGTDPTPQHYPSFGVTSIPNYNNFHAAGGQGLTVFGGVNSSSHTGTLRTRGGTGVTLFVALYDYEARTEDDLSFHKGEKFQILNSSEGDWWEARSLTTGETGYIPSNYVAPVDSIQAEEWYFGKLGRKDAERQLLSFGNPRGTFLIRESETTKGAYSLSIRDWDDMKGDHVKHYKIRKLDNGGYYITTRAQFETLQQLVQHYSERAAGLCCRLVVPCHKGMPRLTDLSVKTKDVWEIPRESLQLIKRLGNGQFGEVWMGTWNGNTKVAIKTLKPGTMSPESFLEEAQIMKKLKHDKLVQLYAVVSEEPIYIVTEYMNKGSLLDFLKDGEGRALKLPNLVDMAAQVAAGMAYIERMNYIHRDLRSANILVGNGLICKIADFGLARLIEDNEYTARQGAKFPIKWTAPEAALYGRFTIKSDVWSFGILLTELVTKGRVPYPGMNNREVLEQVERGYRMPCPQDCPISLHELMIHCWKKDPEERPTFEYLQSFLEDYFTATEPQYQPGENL
UniProt P49840: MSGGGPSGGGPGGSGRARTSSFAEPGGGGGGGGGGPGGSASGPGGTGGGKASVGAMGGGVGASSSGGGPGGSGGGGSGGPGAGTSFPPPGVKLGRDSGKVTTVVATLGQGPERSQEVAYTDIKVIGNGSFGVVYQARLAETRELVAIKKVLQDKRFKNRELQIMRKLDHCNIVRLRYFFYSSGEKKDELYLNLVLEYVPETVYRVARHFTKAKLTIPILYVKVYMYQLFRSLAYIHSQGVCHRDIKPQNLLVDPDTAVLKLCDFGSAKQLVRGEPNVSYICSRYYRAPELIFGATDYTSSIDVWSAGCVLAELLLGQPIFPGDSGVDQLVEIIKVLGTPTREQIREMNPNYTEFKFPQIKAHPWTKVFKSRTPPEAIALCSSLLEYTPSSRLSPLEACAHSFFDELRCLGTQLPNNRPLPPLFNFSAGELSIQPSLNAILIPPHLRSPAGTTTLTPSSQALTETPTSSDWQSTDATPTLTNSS
UniProt P14616: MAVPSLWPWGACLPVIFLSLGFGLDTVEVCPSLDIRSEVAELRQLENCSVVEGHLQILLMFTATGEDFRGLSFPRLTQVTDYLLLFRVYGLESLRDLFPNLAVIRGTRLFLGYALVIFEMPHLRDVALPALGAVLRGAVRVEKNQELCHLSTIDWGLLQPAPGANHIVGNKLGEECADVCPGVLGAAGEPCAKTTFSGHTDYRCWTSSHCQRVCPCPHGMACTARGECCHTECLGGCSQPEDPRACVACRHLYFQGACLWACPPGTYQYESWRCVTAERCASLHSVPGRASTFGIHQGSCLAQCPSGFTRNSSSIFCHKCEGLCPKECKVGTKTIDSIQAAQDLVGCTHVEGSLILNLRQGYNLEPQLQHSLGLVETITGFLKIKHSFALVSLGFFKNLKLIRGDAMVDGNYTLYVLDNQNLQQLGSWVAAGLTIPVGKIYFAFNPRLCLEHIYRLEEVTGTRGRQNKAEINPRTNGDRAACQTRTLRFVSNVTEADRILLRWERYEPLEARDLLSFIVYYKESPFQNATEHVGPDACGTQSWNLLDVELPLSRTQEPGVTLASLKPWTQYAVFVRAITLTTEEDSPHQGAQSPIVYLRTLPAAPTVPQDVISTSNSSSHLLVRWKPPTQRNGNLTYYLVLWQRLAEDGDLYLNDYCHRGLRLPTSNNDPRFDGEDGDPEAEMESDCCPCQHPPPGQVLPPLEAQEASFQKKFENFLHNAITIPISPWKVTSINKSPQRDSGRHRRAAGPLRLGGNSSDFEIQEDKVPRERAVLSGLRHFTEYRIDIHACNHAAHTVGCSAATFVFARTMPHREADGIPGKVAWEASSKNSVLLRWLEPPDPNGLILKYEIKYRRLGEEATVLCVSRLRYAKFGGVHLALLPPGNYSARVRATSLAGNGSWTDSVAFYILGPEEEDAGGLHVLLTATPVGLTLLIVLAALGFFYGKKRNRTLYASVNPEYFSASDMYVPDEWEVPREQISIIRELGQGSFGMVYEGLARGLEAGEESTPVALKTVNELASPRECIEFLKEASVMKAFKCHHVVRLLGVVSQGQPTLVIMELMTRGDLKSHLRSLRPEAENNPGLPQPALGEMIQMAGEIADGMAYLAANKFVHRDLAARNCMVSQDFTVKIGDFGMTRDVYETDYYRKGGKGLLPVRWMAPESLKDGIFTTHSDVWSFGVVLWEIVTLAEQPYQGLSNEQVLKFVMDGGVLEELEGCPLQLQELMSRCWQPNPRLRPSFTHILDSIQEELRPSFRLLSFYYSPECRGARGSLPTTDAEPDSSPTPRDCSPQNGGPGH

Among the targets are ERN1 (UniProt O75460); FGFR1 (UniProt P11362); FGFR2 (UniProt P21802); FGFR3 (UniProt P22607); FGR (UniProt P09769); FLT3 (UniProt P36888); FYN (UniProt P06241); GSK3A (UniProt P49840); HER2 (UniProt P04626); INSRR (UniProt P14616).
What all share (experiment): kinase-Nluc reporter destabilization hit call (1 = scored as downregulated) (binary); higher = compound decreases kinase abundance
What all share (conditions): K562, 2-18 h

This is one part of the list. Hit calls seldom repeat between salt and free forms of one compound.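 Kinases were expressed as nanoluciferase fusions in K562 cells and luminescence was read every 4 h between 2 and 18 h as percent of control, DMSO set to 100% and a positive control to 0%. A time point counts as decreased when the signal drops significantly (2 sigma). The hit call is the authors' own, does not follow from the count of time points alone, and its rule is not shown.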

On to `C=CC(=O)N(C)CCOc1c(N)ncnc1-c1cc(F)cc(NC(=O)c2ccc(C3CC3)cc2F)c1C` [Remibrutinib], for which the “kinase-Nluc reporter destabilization hit call” value with ERN1 (10 µM), with FGFR1 (10 µM), in the assay with FGFR2 (10 µM), with FGFR3 (10 µM), with FGR (10 µM) and with FLT3 (10 µM) was inactive: 0 in each case. Further, the “kinase-Nluc reporter destabilization hit call” value with FYN (10 µM), with GSK3A (10 µM), with HER2 (10 µM) and with INSRR (10 µM) was inactive: 0 in each case.

Take `COc1ccc(-c2c[nH]c3nccc(-c4ccsc4)c23)c(OC)c1`: the “kinase-Nluc reporter destabilization hit call” value with ERN1 (10 µM), with FGFR1 (10 µM), in the assay with FGFR2 (10 µM), with FGFR3 (10 µM), in the assay with FGR (10 µM) and with FLT3 (10 µM) was inactive: 0 each time. Moreover, the “kinase-Nluc reporter destabilization hit call” value with FYN (10 µM), with GSK3A (10 µM), with HER2 (10 µM) and with INSRR (10 µM) was inactive: 0 throughout.

`CC1(C)C(=O)N([C@H]2CCc3c(O)cccc32)c2nc(Nc3cccc(CN4CCCC4)c3)ncc21`: the “kinase-Nluc reporter destabilization hit call” value in the assay with ERN1 (2.5 µM), with FGFR1 (2.5 µM), in the assay with FGFR2 (2.5 µM), in the assay with FGFR3 (2.5 µM), with FGR (2.5 µM) and in the assay with FLT3 (2.5 µM) was inactive: 0 throughout. Moreover, the “kinase-Nluc reporter destabilization hit call” value in the assay with FYN (2.5 µM), with GSK3A (2.5 µM), with HER2 (2.5 µM) and in the assay with INSRR (2.5 µM) was inactive: 0 in each case.

Take `COc1cc(N2CCN(C)CC2)ccc1Nc1nccc(-c2cn(C)c3cnccc23)n1`: the “kinase-Nluc reporter destabilization hit call” value in the assay with ERN1 (10 µM), with FGFR1 (10 µM), with FGFR2 (10 µM), with FGFR3 (10 µM), with FGR (10 µM) and with FLT3 (10 µM) was inactive: 0 throughout. Further, the “kinase-Nluc reporter destabilization hit call” value with FYN (10 µM), with GSK3A (10 µM), in the assay with HER2 (10 µM) and with INSRR (10 µM) was inactive: 0 in each case.

In the case of `Cc1cn(-c2cc(NC(=O)c3ccc(C)c(Nc4nccc(-c5cccnc5)n4)c3)cc(C(F)(F)F)c2)cn1` [Nilotinib], the “kinase-Nluc reporter destabilization hit call” value with ERN1 (2.5 µM), in the assay with FGFR1 (2.5 µM), in the assay with FGFR2 (2.5 µM), in the assay with FGFR3 (2.5 µM), in the assay with FGR (2.5 µM) and in the assay with FLT3 (2.5 µM) was inactive: 0 throughout. Also, the “kinase-Nluc reporter destabilization hit call” value with FYN (2.5 µM), with GSK3A (2.5 µM), with HER2 (2.5 µM) and in the assay with INSRR (2.5 µM) was inactive: 0 in each case.

With `Cc1ccc2c(=O)c3cccc(CC(=O)O)c3oc2c1C` [Vadimezan], the “kinase-Nluc reporter destabilization hit call” value with ERN1 (10 µM), with FGFR1 (10 µM), with FGFR2 (10 µM), with FGFR3 (10 µM), with FGR (10 µM) and with FLT3 (10 µM) was inactive: 0 throughout. Also, the “kinase-Nluc reporter destabilization hit call” value with FYN (10 µM), with GSK3A (10 µM), with HER2 (10 µM) and in the assay with INSRR (10 µM) was inactive: 0 each time.

For `Cc1[nH]c(/C=C2\C(=O)Nc3ccc(F)cc32)c(C)c1C(=O)NC[C@H](O)CN1CCOCC1`, the “kinase-Nluc reporter destabilization hit call” value in the assay with ERN1 (2.5 µM), with FGFR1 (2.5 µM), with FGFR2 (2.5 µM), with FGFR3 (2.5 µM), in the assay with FGR (2.5 µM) and with FLT3 (2.5 µM) was inactive: 0 in each case. Moreover, the “kinase-Nluc reporter destabilization hit call” value in the assay with FYN (2.5 µM), with GSK3A (2.5 µM), with HER2 (2.5 µM) and with INSRR (2.5 µM) was inactive: 0 each time.

Consider `Cc1cc(C)n2c1C=C1C=CC(CCC(=O)NCCN3CCN(C/C=C/C(=O)N4CCCC(n5nc(-c6ccc(Oc7ccccc7)cc6)c6c(N)ncnc65)C4)CC3)=[N+]1[B-]2(F)F` (stereo not given), for which the “kinase-Nluc reporter destabilization hit call” value in the assay with ERN1 (2.5 µM), with FGFR1 (2.5 µM), with FGFR2 (2.5 µM), in the assay with FGFR3 (2.5 µM), with FGR (2.5 µM) and with FLT3 (2.5 µM) was inactive: 0 in each case. Further, the “kinase-Nluc reporter destabilization hit call” value with FYN (2.5 µM), with GSK3A (2.5 µM), with HER2 (2.5 µM) and with INSRR (2.5 µM) was inactive: 0 throughout.

As for `CNC(=O)c1cc(Oc2ccc(NC(=O)Nc3ccc(Cl)c(C(F)(F)F)c3)cc2)ccn1` [Sorafenib], the “kinase-Nluc reporter destabilization hit call” value with ERN1 (2.5 µM), with FGFR1 (2.5 µM), with FGFR2 (2.5 µM), in the assay with FGFR3 (2.5 µM), in the assay with FGR (2.5 µM) and with FLT3 (2.5 µM) was inactive: 0 throughout. The “kinase-Nluc reporter destabilization hit call” value with FYN (2.5 µM), with GSK3A (2.5 µM), in the assay with HER2 (2.5 µM) and with INSRR (2.5 µM) was inactive: 0 throughout.

In the case of `O=C1NCCc2[nH]c(-c3ccncc3)cc21`, the “kinase-Nluc reporter destabilization hit call” value in the assay with ERN1 (2.5 µM), with FGFR1 (2.5 µM), in the assay with FGFR2 (2.5 µM), with FGFR3 (2.5 µM), with FGR (2.5 µM) and in the assay with FLT3 (2.5 µM) was inactive: 0 in each case. The “kinase-Nluc reporter destabilization hit call” value with FYN (2.5 µM), with GSK3A (2.5 µM), with HER2 (2.5 µM) and with INSRR (2.5 µM) was inactive: 0 each time.

As for `O=C(Nc1cccc(Nc2nccc(Nc3cccc(C(F)(F)F)c3)n2)c1)C1CC1` [Aurora kinase inhibitor-3], the “kinase-Nluc reporter destabilization hit call” value in the assay with ERN1 (2.5 µM), with FGFR1 (2.5 µM), with FGFR2 (2.5 µM), with FGFR3 (2.5 µM), with FGR (2.5 µM) and in the assay with FLT3 (2.5 µM) was inactive: 0 each time. Further, the “kinase-Nluc reporter destabilization hit call” value with FYN (2.5 µM), with GSK3A (2.5 µM), with HER2 (2.5 µM) and with INSRR (2.5 µM) was inactive: 0 in each case.

`CCn1c(=O)c(-c2cc(NC(=O)Nc3ccccc3)c(F)cc2Br)cc2cnc(NC)cc21` [Ripretinib]: the “kinase-Nluc reporter destabilization hit call” value in the assay with ERN1 (10 µM) was inactive: 0; with FGFR1 (10 µM) it was active: 1; in the assay with FGFR2 (10 µM), inactive: 0; with FGFR3 (10 µM), inactive: 0; in the assay with FGR (10 µM), inactive: 0; with FLT3 (10 µM), inactive: 0. Also, the “kinase-Nluc reporter destabilization hit call” value in the assay with FYN (10 µM), with GSK3A (10 µM), with HER2 (10 µM) and with INSRR (10 µM) was inactive: 0 throughout.

Take `O=C(c1ccc(/C=C/c2n[nH]c3ccccc23)cc1)N1CCNCC1`: the “kinase-Nluc reporter destabilization hit call” value with ERN1 (2.5 µM), in the assay with FGFR1 (2.5 µM), with FGFR2 (2.5 µM), with FGFR3 (2.5 µM), with FGR (2.5 µM) and with FLT3 (2.5 µM) was inactive: 0 throughout. Also, the “kinase-Nluc reporter destabilization hit call” value with FYN (2.5 µM), with GSK3A (2.5 µM), with HER2 (2.5 µM) and with INSRR (2.5 µM) was inactive: 0 each time.

Regarding `CCN(CC)CCNC(=O)c1c(C)[nH]c(/C=C2\C(=O)Nc3ccc(F)cc32)c1C` [Sunitinib], the “kinase-Nluc reporter destabilization hit call” value in the assay with ERN1 (2.5 µM), with FGFR1 (2.5 µM), with FGFR2 (2.5 µM), in the assay with FGFR3 (2.5 µM), with FGR (2.5 µM) and with FLT3 (2.5 µM) was inactive: 0 each time. In addition, the “kinase-Nluc reporter destabilization hit call” value with FYN (2.5 µM), with GSK3A (2.5 µM), with HER2 (2.5 µM) and in the assay with INSRR (2.5 µM) was inactive: 0 in each case.
